Laboratory results: PMC8624523, “Novel GPR120 Agonists with Improved Pharmacokinetic Profiles for the Treatment of Type 2 Diabetes” (Molecules, 2021)

Assay: Pharmacokinetic analysis in C57BL/6 mice after gavage administration
Details: male, C57BL/6, mouse, in vivo, po, 10 mg/kg

half-life: 39.6 ± 13.8 min
SMILES: Cc1ccc(-c2ccc(F)cc2COc2ccc(CCC(=O)O)cc2)cc1 [TUG-891, reference compound]
